Test results from US20020198160A1, “Compositions and methods for enhancing the bioavailability of pharmaceutical agents” (priority 2001, published 2002).
Some of these results come from one statement about several compounds together.

Tested on: HCT15 cells (which express P-glycoprotein)
Assay: Decrease of the IC50 of paclitaxel in HCT15 cells on adding a P-glycoprotein inhibitor
Assay type: cell-based
Details: lopinavir 10 μM added to paclitaxel

`Cc1cccc(C)c1OCC(=O)N[C@@H](Cc1ccccc1)[C@@H](O)C[C@H](Cc1ccccc1)NC(=O)[C@H](C(C)C)N1CCCNC1=O` (relative stereo) [Lopinavir, [1S-[1R*,(R*),3R*,4R*]]-N-[4-[[(2,6-dimethylphenoxy)acetyl]amino]-3-hydroxy-5-phenyl-1-(phenylmethyl)pentyl]tetrahydro-alpha-(1-methylethyl)-2-oxo-(2H)-pyrimidine acetamide] was tested, and the “decrease in the IC50 of paclitaxel” value was over 37 fold.
